From the supplement of paper PMC10849652
This is one part of the list.

Amino acid sequences for entries named in this document (tags omitted). A change or cut given only in a name is not applied to a line headed by its entry.
UniProt Q9BSU3: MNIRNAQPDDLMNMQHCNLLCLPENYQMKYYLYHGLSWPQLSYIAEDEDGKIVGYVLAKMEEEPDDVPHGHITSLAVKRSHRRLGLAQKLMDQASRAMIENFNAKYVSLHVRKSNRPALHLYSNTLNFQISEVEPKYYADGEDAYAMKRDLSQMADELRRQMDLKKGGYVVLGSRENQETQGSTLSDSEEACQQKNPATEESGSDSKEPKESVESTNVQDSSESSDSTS
UniProt P12829: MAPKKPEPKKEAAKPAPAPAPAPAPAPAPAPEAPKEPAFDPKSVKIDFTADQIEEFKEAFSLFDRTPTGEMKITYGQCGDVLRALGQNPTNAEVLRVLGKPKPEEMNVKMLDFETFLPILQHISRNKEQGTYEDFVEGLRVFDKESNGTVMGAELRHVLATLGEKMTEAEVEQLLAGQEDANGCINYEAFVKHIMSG
UniProt Q96NT1: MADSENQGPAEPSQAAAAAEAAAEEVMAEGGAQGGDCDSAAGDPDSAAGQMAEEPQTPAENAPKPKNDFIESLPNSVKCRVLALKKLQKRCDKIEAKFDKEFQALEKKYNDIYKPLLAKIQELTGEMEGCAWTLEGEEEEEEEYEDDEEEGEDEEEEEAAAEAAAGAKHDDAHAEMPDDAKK
UniProt P61599, whole entry, looked up: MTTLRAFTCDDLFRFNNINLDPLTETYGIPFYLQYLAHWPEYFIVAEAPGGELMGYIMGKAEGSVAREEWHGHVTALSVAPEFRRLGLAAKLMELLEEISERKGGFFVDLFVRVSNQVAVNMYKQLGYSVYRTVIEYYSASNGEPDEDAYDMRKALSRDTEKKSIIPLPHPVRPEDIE
UniProt E9PAV3, whole entry, looked up: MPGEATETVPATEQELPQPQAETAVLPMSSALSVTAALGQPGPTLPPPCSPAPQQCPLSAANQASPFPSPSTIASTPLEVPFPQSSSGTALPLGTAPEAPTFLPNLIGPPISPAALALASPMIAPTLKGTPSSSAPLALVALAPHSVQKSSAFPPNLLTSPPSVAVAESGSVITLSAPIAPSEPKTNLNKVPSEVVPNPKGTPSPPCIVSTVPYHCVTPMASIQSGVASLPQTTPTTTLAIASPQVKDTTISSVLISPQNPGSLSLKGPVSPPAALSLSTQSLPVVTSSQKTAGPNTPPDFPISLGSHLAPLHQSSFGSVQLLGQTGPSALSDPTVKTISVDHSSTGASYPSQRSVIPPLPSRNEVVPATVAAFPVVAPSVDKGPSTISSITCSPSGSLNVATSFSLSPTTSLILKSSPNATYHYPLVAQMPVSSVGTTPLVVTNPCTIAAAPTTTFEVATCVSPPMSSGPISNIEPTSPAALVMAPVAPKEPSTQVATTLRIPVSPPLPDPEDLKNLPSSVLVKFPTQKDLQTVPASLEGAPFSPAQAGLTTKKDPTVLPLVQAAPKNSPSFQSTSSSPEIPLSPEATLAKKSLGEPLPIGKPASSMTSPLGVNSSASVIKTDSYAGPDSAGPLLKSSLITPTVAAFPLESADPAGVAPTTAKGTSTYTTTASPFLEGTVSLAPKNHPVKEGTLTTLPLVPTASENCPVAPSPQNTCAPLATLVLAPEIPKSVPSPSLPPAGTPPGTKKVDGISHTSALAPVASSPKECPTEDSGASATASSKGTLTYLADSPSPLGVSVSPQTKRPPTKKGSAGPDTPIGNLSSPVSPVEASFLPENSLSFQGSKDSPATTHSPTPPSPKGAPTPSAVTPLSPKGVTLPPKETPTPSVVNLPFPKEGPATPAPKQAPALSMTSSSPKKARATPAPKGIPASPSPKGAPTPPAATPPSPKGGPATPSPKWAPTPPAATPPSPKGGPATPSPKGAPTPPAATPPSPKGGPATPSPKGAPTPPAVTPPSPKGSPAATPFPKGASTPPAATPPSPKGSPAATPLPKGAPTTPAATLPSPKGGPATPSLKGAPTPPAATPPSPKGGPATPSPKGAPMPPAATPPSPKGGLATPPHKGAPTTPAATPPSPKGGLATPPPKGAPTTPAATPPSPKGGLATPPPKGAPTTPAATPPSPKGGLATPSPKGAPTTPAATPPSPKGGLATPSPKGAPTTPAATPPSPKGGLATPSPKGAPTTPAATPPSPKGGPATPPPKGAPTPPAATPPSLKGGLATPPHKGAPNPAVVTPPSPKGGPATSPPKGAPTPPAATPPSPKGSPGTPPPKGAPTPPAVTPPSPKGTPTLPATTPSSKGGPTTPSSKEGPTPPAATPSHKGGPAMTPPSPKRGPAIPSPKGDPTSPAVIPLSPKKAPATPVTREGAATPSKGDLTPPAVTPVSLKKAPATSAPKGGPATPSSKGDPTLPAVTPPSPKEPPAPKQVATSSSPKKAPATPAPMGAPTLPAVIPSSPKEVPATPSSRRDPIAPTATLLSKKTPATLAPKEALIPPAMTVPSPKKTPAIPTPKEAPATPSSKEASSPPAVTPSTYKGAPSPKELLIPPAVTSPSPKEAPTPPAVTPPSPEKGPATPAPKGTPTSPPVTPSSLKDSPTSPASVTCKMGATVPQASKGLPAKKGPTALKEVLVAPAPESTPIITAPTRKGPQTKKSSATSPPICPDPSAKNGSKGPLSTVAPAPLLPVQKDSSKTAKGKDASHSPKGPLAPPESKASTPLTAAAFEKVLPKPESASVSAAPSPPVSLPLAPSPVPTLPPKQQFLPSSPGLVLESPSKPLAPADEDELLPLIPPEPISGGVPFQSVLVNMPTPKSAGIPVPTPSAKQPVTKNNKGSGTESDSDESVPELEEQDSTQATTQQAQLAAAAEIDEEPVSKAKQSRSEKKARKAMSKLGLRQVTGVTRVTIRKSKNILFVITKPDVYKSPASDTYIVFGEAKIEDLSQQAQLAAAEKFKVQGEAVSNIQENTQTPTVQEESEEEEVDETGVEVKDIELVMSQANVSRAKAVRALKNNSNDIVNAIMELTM
UniProt Q02083: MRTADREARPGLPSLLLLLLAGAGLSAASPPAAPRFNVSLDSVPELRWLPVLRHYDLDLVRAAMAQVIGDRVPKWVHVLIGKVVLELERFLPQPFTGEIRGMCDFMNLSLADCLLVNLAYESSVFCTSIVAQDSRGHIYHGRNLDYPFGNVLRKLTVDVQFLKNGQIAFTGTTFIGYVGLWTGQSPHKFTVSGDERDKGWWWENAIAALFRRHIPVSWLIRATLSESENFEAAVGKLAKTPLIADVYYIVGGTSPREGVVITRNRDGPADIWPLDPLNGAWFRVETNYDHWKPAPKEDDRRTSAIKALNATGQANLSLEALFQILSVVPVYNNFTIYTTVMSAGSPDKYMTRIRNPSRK
UniProt Q8NEY1: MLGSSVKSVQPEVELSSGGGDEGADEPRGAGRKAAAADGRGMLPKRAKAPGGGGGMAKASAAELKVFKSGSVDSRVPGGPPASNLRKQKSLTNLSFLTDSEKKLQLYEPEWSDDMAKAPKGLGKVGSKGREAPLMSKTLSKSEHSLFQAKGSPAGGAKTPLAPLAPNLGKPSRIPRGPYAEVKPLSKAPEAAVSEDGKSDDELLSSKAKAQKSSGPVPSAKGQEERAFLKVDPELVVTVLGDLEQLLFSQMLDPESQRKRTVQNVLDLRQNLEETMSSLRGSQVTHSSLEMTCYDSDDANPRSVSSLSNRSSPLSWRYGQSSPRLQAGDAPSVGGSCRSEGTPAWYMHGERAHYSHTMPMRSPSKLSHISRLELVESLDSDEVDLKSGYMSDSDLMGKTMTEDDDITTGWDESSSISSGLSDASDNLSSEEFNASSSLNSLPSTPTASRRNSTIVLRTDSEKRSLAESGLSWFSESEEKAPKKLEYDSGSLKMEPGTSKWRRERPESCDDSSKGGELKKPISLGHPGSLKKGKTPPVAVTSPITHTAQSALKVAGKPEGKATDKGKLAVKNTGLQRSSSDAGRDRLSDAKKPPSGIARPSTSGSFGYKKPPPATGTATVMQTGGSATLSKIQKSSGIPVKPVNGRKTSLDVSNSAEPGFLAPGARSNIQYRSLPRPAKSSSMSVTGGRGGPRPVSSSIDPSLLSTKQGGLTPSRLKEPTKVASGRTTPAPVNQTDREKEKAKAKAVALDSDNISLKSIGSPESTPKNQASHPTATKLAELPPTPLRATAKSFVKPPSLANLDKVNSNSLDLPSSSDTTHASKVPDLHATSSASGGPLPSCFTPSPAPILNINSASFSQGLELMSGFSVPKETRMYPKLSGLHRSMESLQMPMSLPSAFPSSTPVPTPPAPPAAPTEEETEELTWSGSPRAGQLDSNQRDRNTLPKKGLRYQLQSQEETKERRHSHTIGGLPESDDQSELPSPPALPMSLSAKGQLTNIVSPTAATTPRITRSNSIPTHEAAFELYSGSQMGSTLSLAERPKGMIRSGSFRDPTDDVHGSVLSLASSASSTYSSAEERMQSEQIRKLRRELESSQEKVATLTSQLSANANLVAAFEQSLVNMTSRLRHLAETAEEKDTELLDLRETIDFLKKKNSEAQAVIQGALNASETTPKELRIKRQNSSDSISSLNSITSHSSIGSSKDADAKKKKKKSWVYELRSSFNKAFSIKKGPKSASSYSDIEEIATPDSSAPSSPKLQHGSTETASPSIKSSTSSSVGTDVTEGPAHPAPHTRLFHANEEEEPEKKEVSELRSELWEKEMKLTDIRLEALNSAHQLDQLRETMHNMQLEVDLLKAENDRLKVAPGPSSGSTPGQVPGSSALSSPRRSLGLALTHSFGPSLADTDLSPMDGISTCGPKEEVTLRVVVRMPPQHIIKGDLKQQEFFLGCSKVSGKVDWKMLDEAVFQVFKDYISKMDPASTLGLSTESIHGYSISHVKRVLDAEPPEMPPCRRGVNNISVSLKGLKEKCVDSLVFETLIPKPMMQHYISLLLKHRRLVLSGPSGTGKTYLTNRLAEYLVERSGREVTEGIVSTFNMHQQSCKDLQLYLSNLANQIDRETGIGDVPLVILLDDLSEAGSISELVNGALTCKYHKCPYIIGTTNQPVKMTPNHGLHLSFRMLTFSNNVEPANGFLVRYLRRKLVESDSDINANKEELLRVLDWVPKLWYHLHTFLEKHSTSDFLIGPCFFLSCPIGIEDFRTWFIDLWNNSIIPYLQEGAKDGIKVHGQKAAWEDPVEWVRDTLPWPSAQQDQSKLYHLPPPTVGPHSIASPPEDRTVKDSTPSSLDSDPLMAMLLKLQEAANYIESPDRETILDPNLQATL
UniProt Q9BTX1: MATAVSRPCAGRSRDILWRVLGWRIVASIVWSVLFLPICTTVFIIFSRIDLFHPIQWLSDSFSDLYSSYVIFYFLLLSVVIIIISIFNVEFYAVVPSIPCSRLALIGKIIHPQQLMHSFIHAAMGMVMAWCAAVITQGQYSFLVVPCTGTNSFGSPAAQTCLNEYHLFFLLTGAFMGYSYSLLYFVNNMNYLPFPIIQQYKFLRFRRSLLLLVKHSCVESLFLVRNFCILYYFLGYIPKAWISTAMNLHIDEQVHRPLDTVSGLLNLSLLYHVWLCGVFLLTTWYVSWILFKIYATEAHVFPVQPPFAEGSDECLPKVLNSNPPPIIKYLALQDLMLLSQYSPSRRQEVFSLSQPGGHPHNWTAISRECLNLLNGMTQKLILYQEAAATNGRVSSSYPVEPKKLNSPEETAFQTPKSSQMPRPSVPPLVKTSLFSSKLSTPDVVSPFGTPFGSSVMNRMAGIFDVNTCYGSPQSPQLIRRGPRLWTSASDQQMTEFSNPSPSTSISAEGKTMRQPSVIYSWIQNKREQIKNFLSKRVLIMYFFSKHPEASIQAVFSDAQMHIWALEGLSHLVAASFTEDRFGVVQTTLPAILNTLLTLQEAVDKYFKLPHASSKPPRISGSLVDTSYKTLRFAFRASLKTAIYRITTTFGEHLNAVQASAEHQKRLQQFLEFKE
UniProt Q6P582, whole entry, looked up: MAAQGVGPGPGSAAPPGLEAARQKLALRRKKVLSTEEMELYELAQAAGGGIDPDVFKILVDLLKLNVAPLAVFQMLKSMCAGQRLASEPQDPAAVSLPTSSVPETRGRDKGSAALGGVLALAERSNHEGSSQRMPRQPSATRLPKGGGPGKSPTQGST
UniProt O14950, whole entry, looked up: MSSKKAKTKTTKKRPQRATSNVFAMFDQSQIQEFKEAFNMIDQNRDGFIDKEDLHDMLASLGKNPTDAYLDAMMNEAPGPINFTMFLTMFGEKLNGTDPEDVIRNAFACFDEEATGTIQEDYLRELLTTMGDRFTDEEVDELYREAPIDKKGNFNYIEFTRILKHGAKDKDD

Key:
Test in all cases: log2 fold change, soluble protein after heating vs DMSO (PISA); higher = thermal stabilisation; K562 lysate, 10 uM; active = over 0.2 and 3.5 SD of the protein, either way, in both replicates (recomputed)
lapatinib = compound: CS(=O)(=O)CCNCc1ccc(-c2ccc3ncnc(Nc4ccc(OCc5cccc(F)c5)c(Cl)c4)c3c2)o1 [lapatinib]
Method in brief: (§1)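 K562 pellets were dounce-homogenised in PBS pH 7.4 containing 1 mM MgCl2, and the crude extract, at 1 mg/mL protein, was exposed to 10 μM compound for 30 min. Aliquots were heated for 3 min across 48°C-58°C, pooled, brought to 0.5% NP-40 at 4°C and spun at 21,000xg for 90 min, with the supernatant taken as soluble protein. TMTpro 16plex LC-MS/MS with equalised channel sums quantified that protein. Values are log-two fold changes in thermal stability relative to solvent controls, taken from duplicates.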

pictilisib = compound: CS(=O)(=O)N1CCN(Cc2cc3nc(-c4cccc5[nH]ncc45)nc(N4CCOCC4)c3s2)CC1 [pictilisib]
Method in brief: as §1

crizotinib = compound: C[C@@H](Oc1cc(-c2cnn(C3CCNCC3)c2)cnc1N)c1c(Cl)ccc(F)c1Cl [crizotinib]
Method in brief: as §1

[1] = compound: C[C@H](C1=CC=C(C=C1)C(=O)NC2=C3C=CNC3=NC=C2)N
Method in brief: as §1

duvelisib = compound: C[C@H](Nc1ncnc2nc[nH]c12)c1cc2cccc(Cl)c2c(=O)n1-c1ccccc1 [duvelisib]
Method in brief: as §1

gandotinib = compound: Cc1cc(Nc2cc(CN3CCOCC3)c3nc(C)c(Cc4ccc(Cl)cc4F)n3n2)n[nH]1 [gandotinib]
Method in brief: as §1

tozasertib = compound: Cc1cc(Nc2cc(N3CCN(C)CC3)nc(Sc3ccc(NC(=O)C4CC4)cc3)n2)n[nH]1 [tozasertib]
Method in brief: as §1

doramapimod = compound: Cc1ccc(-n2nc(C(C)(C)C)cc2NC(=O)Nc2ccc(OCCN3CCOCC3)c3ccccc23)cc1 [doramapimod]
Method in brief: as §1

bafetinib = compound: Cc1ccc(NC(=O)c2ccc(CN3CC[C@H](N(C)C)C3)c(C(F)(F)F)c2)cc1Nc1nccc(-c2cncnc2)n1 [bafetinib]
Method in brief: as §1

[2] = compound: Cc1cccc(CC(=O)N2CCc3c2ccc(-c2cn(C)c4ncnc(N)c24)c3F)n1
Method in brief: as §1

nilotinib = compound: Cc1cn(-c2cc(NC(=O)c3ccc(C)c(Nc4nccc(-c5cccnc5)n4)c3)cc(C(F)(F)F)c2)cn1 [nilotinib]
Method in brief: as §1

[3] = compound: Cc1nc(Nc2n[nH]c3c2CN(C(=O)N[C@H](CN(C)C)c2ccccc2)C3(C)C)c2sccc2n1
Method in brief: as §1

dasatinib = compound: Cc1nc(Nc2ncc(C(=O)Nc3c(C)cccc3Cl)s2)cc(N2CCN(CCO)CC2)n1 [dasatinib]
Method in brief: as §1

[4] = compound: Cc1ncc(-c2ccnc(Nc3ccc(S(C)(=O)=O)cc3)n2)n1C(C)C
Method in brief: as §1

[5] = compound: Cn1cc(-c2ccc3c(c2)CCN3C(=O)Cc2cccc(C(F)(F)F)c2)c2c(N)ncnc21
Method in brief: as §1

quisinostat = compound: Cn1cc(CNCC2CCN(c3ncc(C(=O)NO)cn3)CC2)c2ccccc21 [quisinostat]
Method in brief: as §1

tipifarnib = compound: Cn1cncc1[C@@](N)(c1ccc(Cl)cc1)c1ccc2c(c1)c(-c1cccc(Cl)c1)cc(=O)n2C [tipifarnib]
Method in brief: as §1

[6] = compound: NC(=O)Nc1cc(-c2cccc(F)c2)sc1C(=O)N[C@H]1CCCNC1
Method in brief: as §1

[7] = compound: NC(=O)c1cnc(N[C@@H]2CCCC[C@@H]2N)nc1Nc1cccc(-n2nccn2)c1
Method in brief: as §1

[8] = compound: NC1(c2ccc(-c3nc4ccn5c(=O)[nH]nc5c4cc3-c3ccccc3)cc2)CCC1
Method in brief: as §1

Measured: log2 fold change

NAA11 (UniProt Q9BSU3)
inactive: lapatinib 0.009 | pictilisib 0.048 | crizotinib 0.017 | [1] 0.022 | duvelisib -0.058 | gandotinib 0 | tozasertib 0.001 | doramapimod -0.078 | bafetinib 0.099 | [2] -0.059 | nilotinib 0.033 | [3] -0.001 | dasatinib 0.034 | [4] 0.032 | [5] -0.037 | quisinostat 0.114 | tipifarnib 0.03 | [6] -0.05 | [7] 0.035 | [8] 0.016

MYL4 (UniProt P12829)
inactive: lapatinib 0.007 | pictilisib -0.04 | crizotinib 0.01 | [1] -0.025 | duvelisib 0.014 | gandotinib 0.019 | tozasertib 0.019 | doramapimod -0.019 | bafetinib -0.046 | [2] -0.013 | nilotinib 0.016 | [3] 0.008 | dasatinib 0.002 | [4] 0.027 | [5] -0.031 | quisinostat 0.004 | tipifarnib 0.001 | [6] -0.047 | [7] -0.04 | [8] -0.03

MVB12A (UniProt Q96EY5)
inactive: lapatinib 0.012 | pictilisib -0.027 | crizotinib -0.025 | [1] 0 | duvelisib -0.04 | gandotinib -0.031 | tozasertib -0.046 | doramapimod 0.012 | bafetinib -0.015 | [2] -0.031 | nilotinib -0.025 | [3] -0.05 | dasatinib 0.006 | [4] 0.008 | [5] 0.04 | quisinostat 0.033 | tipifarnib 0.032 | [6] 0.022 | [7] -0.009 | [8] 0.036

MYO9B (UniProt Q13459)
inactive: lapatinib -0.022 | pictilisib -0.014 | crizotinib -0.029 | [1] -0.045 | duvelisib 0.004 | gandotinib 0.009 | tozasertib 0.045 | doramapimod 0.015 | bafetinib -0.04 | [2] 0.122 | nilotinib 0.017 | [3] -0.003 | dasatinib -0.01 | [4] -0.026 | [5] 0.017 | quisinostat -0.018 | tipifarnib -0.002 | [6] 0.026 | [7] 0.015 | [8] 0.004

NAP1L5 (UniProt Q96NT1)
active: [1] 0.616
inactive: lapatinib 0.079 | pictilisib 0.017 | crizotinib 0.094 | duvelisib 0.099 | gandotinib -0.299 | tozasertib -0.016 | doramapimod -0.171 | bafetinib 0.076 | [2] -0.174 | nilotinib -0.008 | [3] -0.053 | dasatinib 0.024 | [4] 0.045 | [5] 0.01 | quisinostat 0.068 | tipifarnib 0.054 | [6] -0.05 | [7] -0.049 | [8] 0.005

NAA25 (UniProt Q14CX7)
inactive: lapatinib -0.01 | pictilisib -0.039 | crizotinib -0.013 | [1] 0.035 | duvelisib -0.019 | gandotinib -0.066 | tozasertib -0.025 | doramapimod -0.016 | bafetinib -0.019 | [2] -0.044 | nilotinib 0 | [3] -0.017 | dasatinib -0.034 | [4] -0.008 | [5] 0 | quisinostat 0.033 | tipifarnib 0.015 | [6] 0.008 | [7] -0.013 | [8] -0.006

Pulled one by one from above, 2 records:
NAA11 (UniProt Q9BSU3)
inactive: lapatinib 0.009 | pictilisib 0.048 | crizotinib 0.017 | [1] 0.022 | duvelisib -0.058 | gandotinib 0 | tozasertib 0.001 | doramapimod -0.078 | bafetinib 0.099 | [2] -0.059 | nilotinib 0.033 | [3] -0.001 | dasatinib 0.034 | [4] 0.032 | [5] -0.037 | quisinostat 0.114 | tipifarnib 0.03 | [6] -0.05 | [7] 0.035 | [8] 0.016

MYL4 (UniProt P12829)
inactive: lapatinib 0.007 | pictilisib -0.04 | crizotinib 0.01 | [1] -0.025 | duvelisib 0.014 | gandotinib 0.019 | tozasertib 0.019 | doramapimod -0.019 | bafetinib -0.046 | [2] -0.013 | nilotinib 0.016 | [3] 0.008 | dasatinib 0.002 | [4] 0.027 | [5] -0.031 | quisinostat 0.004 | tipifarnib 0.001 | [6] -0.047 | [7] -0.04 | [8] -0.03

(listing goes on)

NAA20 (UniProt P61599)
inactive: lapatinib 0.006 | pictilisib -0.058 | crizotinib -0.074 | [1] 0.006 | duvelisib 0.04 | gandotinib -0.04 | tozasertib -0.027 | doramapimod 0.038 | bafetinib -0.025 | [2] -0.021 | nilotinib 0.028 | [3] -0.01 | dasatinib -0.007 | [4] 0.02 | [5] -0.024 | quisinostat -0.049 | tipifarnib 0.005 | [6] 0.012 | [7] 0.023 | [8] 0.026

NACA (UniProt E9PAV3)
inactive: lapatinib -0.01 | pictilisib 0.008 | crizotinib -0.015 | [1] -0.147 | duvelisib 0.042 | gandotinib 0.053 | tozasertib -0.021 | doramapimod -0.016 | bafetinib 0.019 | [2] 0.115 | nilotinib -0.004 | [3] -0.004 | dasatinib -0.012 | [4] -0.034 | [5] 0.002 | quisinostat -0.07 | tipifarnib 0.016 | [6] 0.019 | [7] -0.02 | [8] -0.002

NAT10 (UniProt Q9H0A0)
inactive: lapatinib -0.018 | pictilisib -0.049 | crizotinib -0.054 | [1] 0.026 | duvelisib 0.005 | gandotinib -0.059 | tozasertib 0.007 | doramapimod -0.004 | bafetinib 0.018 | [2] 0.037 | nilotinib -0.026 | [3] 0.014 | dasatinib -0.005 | [4] 0 | [5] 0.036 | quisinostat -0.105 | tipifarnib 0.018 | [6] 0.03 | [7] 0 | [8] -0.038

NAGLU (UniProt P54802)
inactive: lapatinib 0.032 | pictilisib -0.026 | crizotinib -0.09 | [1] 0.013 | duvelisib -0.003 | gandotinib 0.002 | tozasertib 0.022 | doramapimod 0.053 | bafetinib 0.031 | [2] -0.012 | nilotinib -0.022 | [3] -0.006 | dasatinib 0.046 | [4] 0.046 | [5] -0.079 | quisinostat 0.028 | tipifarnib 0.075 | [6] 0.014 | [7] 0.022 | [8] -0.103

NAAA (UniProt Q02083)
inactive: lapatinib 0.021 | pictilisib -0.108 | crizotinib 0.043 | [1] 0.056 | duvelisib 0.018 | gandotinib -0.021 | tozasertib 0.202 | doramapimod -0.069 | bafetinib -0.027 | [2] -0.107 | nilotinib 0.289 | [3] -0.026 | dasatinib 0.012 | [4] -0.04 | [5] -0.015 | quisinostat 0.069 | tipifarnib -0.064 | [6] -0.004 | [7] 0.04 | [8] -0.147

NAV1 (UniProt Q8NEY1)
inactive: lapatinib 0.011 | pictilisib 0.09 | crizotinib -0.075 | [1] -0.103 | duvelisib -0.02 | gandotinib -0.121 | tozasertib -0.016 | doramapimod 0.035 | bafetinib -0.068 | [2] 0.292 | nilotinib -0.004 | [3] -0.015 | dasatinib 0.054 | [4] 0.009 | [5] -0.018 | quisinostat -0.016 | tipifarnib -0.019 | [6] 0.022 | [7] -0.041 | [8] -0.037

NDC1 (UniProt Q9BTX1)
inactive: lapatinib -0.087 | pictilisib -0.012 | crizotinib -0.027 | duvelisib -0.044 | gandotinib 0.185 | tozasertib -0.01 | doramapimod -0.001 | bafetinib -0.066 | nilotinib -0.019 | [3] -0.006 | dasatinib -0.071 | [4] -0.018 | [5] 0.052 | quisinostat -0.03 | tipifarnib 0.009 | [6] 0 | [7] -0.01 | [8] -0.028
active: [1] -0.333 | [2] 0.296

MZT2A (UniProt Q6P582)
inactive: lapatinib -0.015 | pictilisib 0.003 | crizotinib 0.049 | [1] 0.136 | duvelisib -0.075 | gandotinib -0.174 | tozasertib 0.035 | doramapimod -0.024 | bafetinib 0.098 | [2] -0.154 | nilotinib 0.016 | [3] 0.035 | dasatinib 0.008 | [4] -0.074 | [5] 0.021 | quisinostat 0.087 | tipifarnib -0.035 | [6] -0.066 | [7] 0.001 | [8] 0.098

MYL12B (UniProt O14950)
inactive: lapatinib 0.006 | pictilisib -0.016 | crizotinib -0.014 | [1] 0.141 | duvelisib 0 | gandotinib -0.024 | tozasertib -0.008 | doramapimod 0.007 | bafetinib 0.032 | [2] -0.038 | nilotinib 0.053 | [3] -0.005 | dasatinib 0.046 | [4] -0.015 | [5] -0.037 | quisinostat -0.018 | tipifarnib 0.006 | [6] 0.016 | [7] 0.014 | [8] 0.012
